Laboratory results reported in patent US10563263B2, “Genetic polymorphisms associated with statin response and cardiovascular diseases, methods of detection and uses thereof” (CELERA CORPORATION, priority 2010, dated 2020).
The source gives many values for each of these; only a part stands here.

Tested on: CHD
Assay: Meta-analysis of CARE and WOSCOPS combined, synergy index, CHD endpoint
Format: in vivo, human
Description: Tables 4-5 provide meta-analyses of CARE and WOSCOPS combined (2nd section of each table) for two endpoints (CHD and CVD) and three genetic models (dominant, recessive, and additive), as well as logistic regression analyses of CARE (3rd section of each table) and WOSCOPS (4th section of each table) individually.
Tables 12 and 17 provide results of meta-analysis of the CARE and WOSCOPS sample sets combined by direct genotyping and by imputing genotypes.
“P” indicates the p-value, and “P(R)” (or “P.R.”) indicates the p-value random effect. Both of these are p-values corresponding to a statistical test of whether the combined synergy index is equal to one but use different assumptions to derive the p-value. “P” is calculated using a fixed effects model, and “P(R)” is calculated using a random effects model.
“OR” indicates the odds ratio (synergy index) calculated from a fixed effects model, and “OR(R)” (or “OR.R.”) indicates the odds ratio (synergy index) calculated from a random effects model.

[1] = rs10831422 allele C ADDITIVE Imputed
[2] = rs10831422 allele C GENOTYPIC Imputed
[3] = rs10862931 allele C GENOTYPIC Imputed
[4] = rs10865197 allele C DOMINANT Imputed
[5] = rs10871302 allele A DOMINANT Imputed
[6] = rs10877463 allele C DOMINANT Imputed
[7] = rs10877468 allele C DOMINANT Imputed
[8] = rs10879240 allele C ADDITIVE Imputed
[9] = rs10879242 allele A DOMINANT Imputed
[10] = rs10879245 allele G DOMINANT Imputed
[11] = rs10879249 allele T DOMINANT Imputed
[12] = rs10886452 allele A DOMINANT Imputed
[13] = rs10886463 allele C DOMINANT Imputed
[14] = rs10886465 allele A DOMINANT Imputed
[15] = rs10886526 allele C DOMINANT Imputed
[16] = rs10902437 allele G ADDITIVE Imputed
[17] = rs10941126 allele G ADDITIVE Imputed
[18] = rs10941126 allele G DOMINANT Imputed
[19] = rs10947871 allele A DOMINANT Imputed
[20] = rs10972978 allele G DOMINANT Imputed
[21] = rs10973012 allele A DOMINANT Imputed
[22] = rs10974028 allele G ADDITIVE Genotyped
[23] = rs10974028 allele G DOMINANT Genotyped
[24] = rs11021302 allele A ADDITIVE Imputed
[25] = rs11021302 allele A GENOTYPIC Imputed
[26] = rs11099644 allele G RECESSIVE Imputed
[27] = rs11138315 allele G ADDITIVE Imputed
[28] = rs11149802 allele T DOMINANT Imputed
[29] = rs11178531 allele A ADDITIVE Imputed
[30] = rs11178531 allele A DOMINANT Imputed

SMILES: CC[C@H](C)C(=O)O[C@H]1C[C@H](O)C=C2C=C[C@H](C)[C@H](CC[C@@H](O)C[C@@H](O)CC(=O)O)[C@H]21 [Pravastatin, pravastatin]
- OR(R) (rs10831417 allele A GENOTYPIC Imputed): 2.3097
- OR [1]: 1.4561
- OR(R) [1]: 1.4561
- OR [2]: 2.2133
- OR(R) [2]: 2.2133
- OR [3]: 0.4267
- OR(R) [3]: 0.4267
- OR [4]: 1.6437
- OR(R) [4]: 1.6437
- OR [5]: 1.4552
- OR(R) [5]: 1.4552
- OR [6]: 0.6825
- OR(R) [6]: 0.6825
- OR [7]: 0.6833
- OR(R) [7]: 0.6833
- OR [8]: 0.6811
- OR(R) [8]: 0.6808
- OR [9]: 0.5555
- OR(R) [9]: 0.5555
- OR [10]: 0.5555
- OR(R) [10]: 0.5555
- OR [11]: 0.6021
- OR(R) [11]: 0.6021
- OR [12]: 1.6068
- OR(R) [12]: 1.5927
- OR [13]: 1.6141
- OR(R) [13]: 1.6047
- OR [14]: 1.604
- OR(R) [14]: 1.596
- OR [15]: 1.6053
- OR(R) [15]: 1.6053
- Meta-analysis OR (rs10889215 allele A vs G (ref)): 1.63
- OR [16]: 1.3336
- OR(R) [16]: 1.3336
- Meta-analysis OR (rs10935907 allele G vs A (ref)): 1.59
- OR [17]: 0.1976
- OR(R) [17]: 0.1976
- OR [18]: 0.2007
- OR(R) [18]: 0.2007
- OR [19]: 1.5391
- OR(R) [19]: 1.5391
- OR [20]: 0.5018
- OR(R) [20]: 0.5018
- OR [21]: 0.5093
- OR(R) [21]: 0.5093
- OR [22]: 0.6153
- OR(R) [22]: 0.6153
- OR [23]: 0.5349
- OR(R) [23]: 0.5349
- OR [24]: 1.4505
- OR(R) [24]: 1.4505
- OR [25]: 2.2069
- OR(R) [25]: 2.2069
- Meta-analysis OR (rs11077308, A1 (non-ref) G, A2 (ref) A): 1.47
- OR [26]: 2.016
- OR(R) [26]: 2.016
- OR [27]: 0.6333
- OR(R) [27]: 0.6333
- OR [28]: 1.4552
- OR(R) [28]: 1.4552
- OR [29]: 0.7412
- OR(R) [29]: 0.7412
- OR [30]: 0.572
- OR(R) [30]: 0.572
- Meta-analysis OR (rs11610993 allele G vs A (ref)): 0.43
- Meta-analysis OR (rs12155847 allele G vs A (ref)): 1.66
- Meta-analysis OR (rs12286877, A1 (non-ref) A, A2 (ref) G): 2.18
- OR (rs12447191 allele T DOMINANT Genotyped, fixed effect): 0.6338
- OR(R) (rs12447191 allele T DOMINANT Genotyped, random effect): 0.6204
- OR (rs12465349 allele A RECESSIVE Imputed, fixed effect): 1.513
- OR(R) (rs12465349 allele A RECESSIVE Imputed, random effect): 1.513
- OR (rs12509758 allele C DOMINANT Imputed, fixed effect): 1.5799
- OR(R) (rs12509758 allele C DOMINANT Imputed, random effect): 1.5799
- OR (rs12515472 allele A DOMINANT Imputed, fixed effect): 1.4022
- OR(R) (rs12515472 allele A DOMINANT Imputed, random effect): 1.4022
- OR (rs12548906 allele G ADDITIVE Imputed, fixed effect): 1.3761
- OR(R) (rs12548906 allele G ADDITIVE Imputed, random effect): 1.3761
- OR (rs12596240 allele G DOMINANT Imputed, fixed effect): 0.6107
- OR(R) (rs12596240 allele G DOMINANT Imputed, random effect): 0.6107
- Meta-analysis OR (rs12608167, A1 (non-ref) G, A2 (ref) A): 0.67
- OR (rs12618781 allele A DOMINANT Imputed, fixed effect): 0.5924
- OR(R) (rs12618781 allele A DOMINANT Imputed, random effect): 0.5924
- Meta-analysis OR (rs12659030, A1 (non-ref) A, A2 (ref) G): 1.43
- OR (rs12678600 allele A DOMINANT Imputed, fixed effect): 0.6235
- OR(R) (rs12678600 allele A DOMINANT Imputed, random effect): 0.6235
- OR (rs12692229 allele T ADDITIVE Imputed, fixed effect): 1.271
- OR(R) (rs12692229 allele T ADDITIVE Imputed, random effect): 1.271
- OR (rs12713324 allele T DOMINANT Imputed, fixed effect): 1.5061
- OR(R) (rs12713324 allele T DOMINANT Imputed, random effect): 1.5061
- OR (rs12719415 allele T DOMINANT Imputed, fixed effect): 0.6712
- OR(R) (rs12719415 allele T DOMINANT Imputed, random effect): 0.6712
- OR (rs12820589 allele G ADDITIVE Imputed, fixed effect): 1.5773
- OR(R) (rs12820589 allele G ADDITIVE Imputed, random effect): 1.5773
- OR (rs12820589 allele G DOMINANT Imputed, fixed effect): 1.6354
- OR(R) (rs12820589 allele G DOMINANT Imputed, random effect): 1.6354
- OR (rs12831292 allele G ADDITIVE Imputed, fixed effect): 0.7143
- OR(R) (rs12831292 allele G ADDITIVE Imputed, random effect): 0.7143
- OR (rs12831292 allele G DOMINANT Imputed, fixed effect): 0.6038
